Data from PubChem BioAssay AID1688 (National Center for Advancing Translational Sciences (NCATS), 2009).
The whole screen tested about 220,000 compounds, of which about 2,400 (1.1%) were called active. Inconclusive means that the source gave no clear call. Such entries were picked first, then a sample of the others. Calls come from the whole dose curve; as a rule, active = well fitted inhibition curve with a large enough effect; inconclusive = small, poorly fitted or top-dose-only effect, or effect the other way; inactive = no such curve, though single readings can be large or run the other way. Potencies of inconclusive entries are doubtful fits and often do not repeat.
% is set by controls: 0 for no effect and ±100 for the full control effect; potency is the fitted concentration of half-maximal effect.

Assay: qHTS Multiplex Assay to Identify Dual Action Probes in a Cell Model of Huntington: Aggregate Formation (GFP); note: nearly all actives have a fitted effect of over 60% in size
Conditions: PC12 HttQ103-GFP aggregates, Acumen cytometry, 40 h; activity change, negative = inhibition: at 46.1 µM (top of the series) unless noted
Method in brief: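 Aggregate formation scored by laser-scanning cytometer (488 excitation, 500–530 emission) in lysed PC12 cells expressing Q103-GFP after 100 nM tebufenozide induction; library tested in dose series, with ATPLite reagent added in the multiplex.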
In the case of `O=S(=O)(c1ccc2ccccc2c1)N1CCN=C1SCc1cccnc1`, the “activity change, negative = inhibition” value is reported as inactive: -10.2%. For `Cc1cc2n(n1)C(c1sccc1C)Nc1c(C)cccc1-2` (centres undefined), the Potency was inconclusive: 12.6 µM [activator, single point]. For `COc1cc(C2C(C(=O)c3ccc(C)o3)=C(O)C(=O)N2CCc2ccccc2)ccc1O` (centres undefined), the Potency was inconclusive: 25.1 µM [inhibitor, single point]. With `Cc1ccc(NC(=S)N(CCCN2CCCC2)Cc2cccn2Cc2ccc(Cl)cc2)cc1C` the Potency was inconclusive: 35.5 µM [inhibitor, single point]. With `COC(=O)c1[nH]c2ccccc2c1NC(=O)CN1CCCCCC1` the Potency was inconclusive: 10 µM [inhibitor, partial curve]. With `O=C(Nc1ccc(F)cc1)NC1CCCCC1` the “activity change, negative = inhibition” value was inactive: 5.64%. With `O=S(=O)(N/N=C/c1ccc(OC2CSC2)cc1)c1ccccc1` the “activity change, negative = inhibition” value was inactive: -1.29%. For `Oc1ccc(Cl)cc1C=Nc1ccc2c3c(cccc13)CC2`, the Potency was inconclusive: 8.91 µM [activator, partial curve, poor fit]. For `Cn1cccc1C1Nc2ccccc2NC2=C1C(=O)CC(C)(C)C2` (centres undefined), the Potency was inconclusive: 35.5 µM [activator, single point]. In the case of `O=C(CCl)Nc1ccc(Sc2ccc(NC(=O)CCl)cc2)cc1`, the activity change, negative = inhibition is reported as inactive: 21.2% [at 9.22 µM]. In the case of `COc1cccc(NCc2cc3c(C(C)(C)C)nn(-c4ccccc4)c3[nH]c2=O)c1`, the “activity change, negative = inhibition” value is reported as inactive: 14.7%. For `CCc1cc2c(=O)nc3n(c2s1)Cc1ccccc1/C3=C(/O)c1ccccc1Cl`, the Potency was inconclusive: 35.5 µM [activator, single point]. In the case of `COc1cc2[nH]c(=O)n(CCC(=O)N3CCN(Cc4ccc5c(c4)OCO5)CC3)c(=O)c2cc1OC`, the Potency is reported as inconclusive: 28.2 µM [inhibitor, single point]. For `CN1CCN(C(=O)NCC23CC4CC(CC(C4)C2)C3)CC1`, the Potency was inconclusive: 6.31 µM [activator, single point]. With `CC(C)c1nc2sc3c(=O)[nH]cnc3c2c2c1CCCC2` the activity change, negative = inhibition was inactive: -1.67% [at 9.22 µM]. In the case of `O=C(NNC(=O)c1cccc(S(=O)(=O)N2CCc3ccccc32)c1)c1ccccc1`, the Potency is reported as inconclusive: 11.2 µM [inhibitor, partial curve]. In the case of `CCn1c(=O)cc(OCC(=O)NCC2CCCO2)c2ccccc21` (centres undefined), the Potency is reported as inconclusive: 12.6 µM [activator, partial curve]. With `Cc1ccc(SCc2ccc(C(=O)N3CCCC3)cc2)cc1` the Potency was active: 11.2 µM. With `CCn1c2ccccc2c2cc(/C=N/n3c(C)nnc3C)ccc21` the Potency was inconclusive: 1.12 µM [activator, full curve, poor fit].
